{
  "source": "patent US20050232980A1",
  "about": "“Transdermal chondroitin and glucosamine delivery system and method of use” (priority 2004, published 2005)",
  "origin": "cited, not measured here",
  "settings": "oral supplementation; most studies",
  "note": "Some entries share one result that the patent states for a list of compounds.",
  "data": [
    {"molecule": "N[C@H]1C(O)O[C@H](CO)[C@@H](O)[C@@H]1O", "note": "(some centres unmarked) [glucosamine]", "values": [
      {"measurement": "systemic bioavailability", "value": "less than 10%"}
    ]},
    {"molecule": "chondroitin sulfate", "values": [
      {"measurement": "systemic bioavailability", "value": "less than 10%"}
    ]}
  ]
}
